Results from PMC9966875.

Amino acid sequences for entries named in this document (tags omitted).
UniProt P52926: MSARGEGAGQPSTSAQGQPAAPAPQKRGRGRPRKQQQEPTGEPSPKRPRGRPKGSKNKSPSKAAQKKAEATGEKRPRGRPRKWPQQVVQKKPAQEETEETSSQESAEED
UniProt Q14980: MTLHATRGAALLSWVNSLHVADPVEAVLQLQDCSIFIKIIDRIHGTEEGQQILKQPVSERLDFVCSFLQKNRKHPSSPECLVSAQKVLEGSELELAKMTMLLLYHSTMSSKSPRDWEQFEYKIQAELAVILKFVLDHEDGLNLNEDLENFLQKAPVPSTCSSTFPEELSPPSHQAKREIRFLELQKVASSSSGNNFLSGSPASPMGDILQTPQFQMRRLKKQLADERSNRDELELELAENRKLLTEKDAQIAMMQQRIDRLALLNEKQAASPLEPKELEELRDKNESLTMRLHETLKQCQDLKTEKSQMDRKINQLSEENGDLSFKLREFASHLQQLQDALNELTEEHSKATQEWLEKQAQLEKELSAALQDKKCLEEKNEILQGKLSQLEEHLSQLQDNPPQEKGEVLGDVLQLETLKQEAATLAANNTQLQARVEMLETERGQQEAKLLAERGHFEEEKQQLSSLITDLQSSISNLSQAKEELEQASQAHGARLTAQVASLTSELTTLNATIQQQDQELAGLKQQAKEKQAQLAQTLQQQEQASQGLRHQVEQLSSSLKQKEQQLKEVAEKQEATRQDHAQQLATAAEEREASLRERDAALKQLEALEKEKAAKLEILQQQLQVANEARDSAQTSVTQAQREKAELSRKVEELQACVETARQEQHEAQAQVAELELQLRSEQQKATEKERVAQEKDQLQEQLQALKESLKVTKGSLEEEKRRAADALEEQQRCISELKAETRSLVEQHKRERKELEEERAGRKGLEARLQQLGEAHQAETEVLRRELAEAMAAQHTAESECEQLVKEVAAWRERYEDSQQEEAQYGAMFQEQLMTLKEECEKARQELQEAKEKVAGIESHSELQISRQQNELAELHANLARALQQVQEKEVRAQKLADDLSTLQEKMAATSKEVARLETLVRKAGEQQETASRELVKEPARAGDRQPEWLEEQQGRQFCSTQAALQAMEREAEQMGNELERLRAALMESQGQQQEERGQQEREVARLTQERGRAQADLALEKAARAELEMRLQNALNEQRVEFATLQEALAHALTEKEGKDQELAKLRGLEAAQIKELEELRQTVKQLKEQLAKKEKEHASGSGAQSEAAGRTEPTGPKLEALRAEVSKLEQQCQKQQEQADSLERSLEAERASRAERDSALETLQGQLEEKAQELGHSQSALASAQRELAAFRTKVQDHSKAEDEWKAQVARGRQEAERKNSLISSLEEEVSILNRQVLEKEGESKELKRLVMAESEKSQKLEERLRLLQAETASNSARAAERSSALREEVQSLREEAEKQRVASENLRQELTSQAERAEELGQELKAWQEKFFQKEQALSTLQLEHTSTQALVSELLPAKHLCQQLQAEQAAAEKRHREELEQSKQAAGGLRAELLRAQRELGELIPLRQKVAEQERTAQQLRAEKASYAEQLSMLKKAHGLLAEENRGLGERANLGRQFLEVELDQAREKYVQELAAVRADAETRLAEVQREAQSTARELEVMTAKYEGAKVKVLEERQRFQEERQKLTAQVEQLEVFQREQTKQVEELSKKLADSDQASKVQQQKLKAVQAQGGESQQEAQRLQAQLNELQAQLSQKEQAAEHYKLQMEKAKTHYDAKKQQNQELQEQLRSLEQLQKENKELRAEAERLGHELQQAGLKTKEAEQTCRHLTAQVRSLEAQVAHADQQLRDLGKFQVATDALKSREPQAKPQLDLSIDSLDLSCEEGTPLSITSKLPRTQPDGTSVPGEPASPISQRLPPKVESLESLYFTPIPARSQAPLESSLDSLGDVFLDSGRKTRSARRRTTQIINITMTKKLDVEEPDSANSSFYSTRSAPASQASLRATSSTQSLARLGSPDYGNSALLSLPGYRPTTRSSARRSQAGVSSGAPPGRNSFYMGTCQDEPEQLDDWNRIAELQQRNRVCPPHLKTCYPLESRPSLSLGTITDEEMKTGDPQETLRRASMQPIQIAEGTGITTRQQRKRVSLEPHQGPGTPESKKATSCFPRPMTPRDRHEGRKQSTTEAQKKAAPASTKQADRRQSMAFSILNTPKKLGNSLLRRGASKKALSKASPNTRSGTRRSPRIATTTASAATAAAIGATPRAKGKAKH

Columns and labels:
HMGA2-Flag-BioID2 [1] = biological target: HMGA2-Flag-BioID2 (UniProt P52926); test: proximity labelling; BioID/Western blot: HEK293 HMGA2-BioID2 against BioID2 alone, excess biotin for 18 h; biotinylated proteins captured on streptavidin-agarose and detected with specific antibodies
HMGA2-Flag-BioID2 [2] = biological target: HMGA2-Flag-BioID2 (UniProt P52926); test: proximity labelling; BioID2: HEK293 stably expressing HMGA2-Flag-BioID2, SILAC, 50 uM biotin for 18 h; high-salt RIPA lysis, capture on streptavidin-agarose, LC-MS/MS; two experiments, controls BirA* and parental cells (experiment 1), BioID2 alone (experiment 2)
HMGA2-V5-miniTurbo = HMGA2-V5-miniTurbo (UniProt P52926); test: proximity labelling; miniTurbo: HEK293 stably expressing HMGA2-V5-miniTurbo, SILAC, 1 hr labeling time with biotin; streptavidin capture, LC-MS/MS; control miniTurbo alone

binding (HMGA2-Flag-BioID2 [1]): no binding
binding (HMGA2-Flag-BioID2 [2]): no binding
Molecule: TP53 (from UniProt P04637 1-393)

binding (HMGA2-V5-miniTurbo): binds
binding (HMGA2-Flag-BioID2 [1]): binds
binding (HMGA2-Flag-BioID2 [2]): binds
Molecule: nuclear mitotic apparatus protein, NUMA (from UniProt Q14980 1-2115)

binding (HMGA2-V5-miniTurbo): binds
binding (HMGA2-Flag-BioID2 [2]): binds
B1: ILKAP (protein, UniProt Q9H0C8 1-392)
chain: MDLFGDLPEPERSPRPAAGKEAQKGPLLFDDLPPASSTDSGSGGPLLFDDLPPASSGDSGSLATSISQMVKTEGKGAKRKTSEEEKNGSEELVEKKVCKASSVIFGLKGYVAERKGEREEMQDAHVILNDITEECRPPSSLITRVSYFAVFDGHGGIRASKFAAQNLHQNLIRKFPKGDVISVEKTVKRCLLDTFKHTDEEFLKQASSQKPAWKDGSTATCVLAVDNILYIANLGDSRAILCRYNEESQKHAALSLSKEHNPTQYEERMRIQKAGGNVRDGRVLGVLEVSRSIGDGQYKRCGVTSVPDIRRCQLTPNDRFILLACDGLFKVFTPEEAVNFILSCLEDEKIQTREGKSAADARYEAACNRLANKAVQRGSADNVTVMVVRIGH

binding (HMGA2-V5-miniTurbo): binds
binding (HMGA2-Flag-BioID2 [2]): binds
B2: DNTTIP2 (protein, UniProt Q5QJE6 1-756)
chain: MVVTRSARAKASIQAASAESSGQKSFAANGIQAHPESSTGSDARTTAESQTTGKQSLIPRTPKARKRKSRTTGSLPKGTEPSTDGETSEAESNYSVSEHHDTILRVTRRRQILIACSPVSSVRKKPKVTPTKESYTEEIVSEAESHVSGISRIVLPTEKTTGARRSKAKSLTDPSQESHTEAISDAETSSSDISFSGIATRRTRSMQRKLKAQTEKKDSKIVPGNEKQIVGTPVNSEDSDTRQTSHLQARSLSEINKPNFYNNDFDDDFSHRSSENILTVHEQANVESLKETKQNCKDLDEDANGITDEGKEINEKSSQLKNLSELQDTSLQQLVSQRHSTPQNKNAVSVHSNLNSEAVMKSLTQTFATVEVGRWNNNKKSPIKASDLTKFGDCGGSDDEEESTVISVSEDMNSEGNVDFECDTKLYTSAPNTSQGKDNSVLLVLSSDESQQSENSENEEDTLCFVENSGQRESLSGDTGSLSCDNALFVIDTTPGMSADKNFYLEEEDKASEVAIEEEKEEEEDEKSEEDSSDHDENEDEFSDEEDFLNSTKAKLLKLTSSSIDPGLSIKQLGGLYINFNADKLQSNKRTLTQIKEKKKNELLQKAVITPDFEKNHCVPPYSESKYQLQKKRRKERQKTAGDGWFGMKAPEMTNELKNDLKALKMRASMDPKRFYKKNDRDGFPKYFQIGTIVDNPADFYHSRIPKKQRKRTIVEELLADSEFRRYNRRKYSEIMAEKAANAAGKKFRKKKKFRN

binding (HMGA2-V5-miniTurbo): binds
binding (HMGA2-Flag-BioID2 [2]): binds
B3: POGZ (protein, UniProt Q7Z3K3 1-1410)
chain: MADTDLFMECEEEELEPWQKISDVIEDSVVEDYNSVDKTTTVSVSQQPVSAPVPIAAHASVAGHLSTSTTVSSSGAQNSDSTKKTLVTLIANNNAGNPLVQQGGQPLILTQNPAPGLGTMVTQPVLRPVQVMQNANHVTSSPVASQPIFITTQGFPVRNVRPVQNAMNQVGIVLNVQQGQTVRPITLVPAPGTQFVKPTVGVPQVFSQMTPVRPGSTMPVRPTTNTFTTVIPATLTIRSTVPQSQSQQTKSTPSTSTTPTATQPTSLGQLAVQSPGQSNQTTNPKLAPSFPSPPAVSIASFVTVKRPGVTGENSNEVAKLVNTLNTIPSLGQSPGPVVVSNNSSAHGSQRTSGPESSMKVTSSIPVFDLQDGGRKICPRCNAQFRVTEALRGHMCYCCPEMVEYQKKGKSLDSEPSVPSAAKPPSPEKTAPVASTPSSTPIPALSPPTKVPEPNENVGDAVQTKLIMLVDDFYYGRDGGKVAQLTNFPKVATSFRCPHCTKRLKNNIRFMNHMKHHVELDQQNGEVDGHTICQHCYRQFSTPFQLQCHLENVHSPYESTTKCKICEWAFESEPLFLQHMKDTHKPGEMPYVCQVCQYRSSLYSEVDVHFRMIHEDTRHLLCPYCLKVFKNGNAFQQHYMRHQKRNVYHCNKCRLQFLFAKDKIEHKLQHHKTFRKPKQLEGLKPGTKVTIRASRGQPRTVPVSSNDTPPSALQEAAPLTSSMDPLPVFLYPPVQRSIQKRAVRKMSVMGRQTCLECSFEIPDFPNHFPTYVHCSLCRYSTCCSRAYANHMINNHVPRKSPKYLALFKNSVSGIKLACTSCTFVTSVGDAMAKHLVFNPSHRSSSILPRGLTWIAHSRHGQTRDRVHDRNVKNMYPPPSFPTNKAATVKSAGATPAEPEELLTPLAPALPSPASTATPPPTPTHPQALALPPLATEGAECLNVDDQDEGSPVTQEPELASGGGGSGGVGKKEQLSVKKLRVVLFALCCNTEQAAEHFRNPQRRIRRWLRRFQASQGENLEGKYLSFEAEEKLAEWVLTQREQQLPVNEETLFQKATKIGRSLEGGFKISYEWAVRFMLRHHLTPHARRAVAHTLPKDVAENAGLFIDFVQRQIHNQDLPLSMIVAIDEISLFLDTEVLSSDDRKENALQTVGTGEPWCDVVLAILADGTVLPTLVFYRGQMDQPANMPDSILLEAKESGYSDDEIMELWSTRVWQKHTACQRSKGMLVMDCHRTHLSEEVLAMLSASSTLPAVVPAGCSSKIQPLDVCIKRTVKNFLHKKWKEQAREMADTACDSDVLLQLVLVWLGEVLGVIGDCPELVQRSFLVASVLPGPDGNINSPTRNADMQEELIASLEEQLKLSGEHSESSTPRPRSSPEETIEPESLHQLFEGESETESFYGFEEADLDLMEI

binding (HMGA2-V5-miniTurbo): binds
binding (HMGA2-Flag-BioID2 [2]): binds
B4: CHAMP1 (protein, UniProt Q96JM3 1-812)
chain: MEAFQELRKPSARLECDHCSFRGTDYENVQIHMGTIHPEFCDEMDAGGLGKMIFYQKSAKLFHCHKCFFTSKMYSNVYYHITSKHASPDKWNDKPKNQLNKETDPVKSPPLPEHQKIPCNSAEPKSIPALSMETQKLGSVLSPESPKPTPLTPLEPQKPGSVVSPELQTPLPSPEPSKPASVSSPEPPKSVPVCESQKLAPVPSPEPQKPAPVSPESVKATLSNPKPQKQSHFPETLGPPSASSPESPVLAASPEPWGPSPAASPESRKSARTTSPEPRKPSPSESPEPWKPFPAVSPEPRRPAPAVSPGSWKPGPPGSPRPWKSNPSASSGPWKPAKPAPSVSPGPWKPIPSVSPGPWKPTPSVSSASWKSSSVSPSSWKSPPASPESWKSGPPELRKTAPTLSPEHWKAVPPVSPELRKPGPPLSPEIRSPAGSPELRKPSGSPDLWKLSPDQRKTSPASLDFPESQKSSRGGSPDLWKSSFFIEPQKPVFPETRKPGPSGPSESPKAASDIWKPVLSIDTEPRKPALFPEPAKTAPPASPEARKRALFPEPRKHALFPELPKSALFSESQKAVELGDELQIDAIDDQKCDILVQEELLASPKKLLEDTLFPSSKKLKKDNQESSDAELSSSEYIKTDLDAMDIKGQESSSDQEQVDVESIDFSKENKMDMTSPEQSRNVLQFTEEKEAFISEEEIAKYMKRGKGKYYCKICCCRAMKKGAVLHHLVNKHNVHSPYKCTICGKAFLLESLLKNHVAAHGQSLLKCPRCNFESNFPRGFKKHLTHCQSRHNEEANKKLMEALEPPLEEQQI

binding (HMGA2-V5-miniTurbo): binds
binding (HMGA2-Flag-BioID2 [2]): binds
B5: CDCA8 (protein, UniProt Q53HL2 1-280)
chain: MAPRKGSSRVAKTNSLRRRKLASFLKDFDREVEIRIKQIESDRQNLLKEVDNLYNIEILRLPKALREMNWLDYFALGGNKQALEEAATADLDITEINKLTAEAIQTPLKSAKTRKVIQVDEMIVEEEEEEENERKNLQTARVKRCPPSKKRTQSIQGKGKGKRSSRANTVTPAVGRLEVSMVKPTPGLTPRFDSRVFKTPGLRTPAAGERIYNISGNGSPLADSKEIFLTVPVGGGESLRLLASDLQRHSIAQLDPEALGNIKKLSNRLAQICSSIRTHK

binding (HMGA2-V5-miniTurbo): binds
binding (HMGA2-Flag-BioID2 [2]): binds
B6: ZNF512B (protein, UniProt Q96KM6 1-892)
chain: MTDPFCVGGRRLPGSSKSGPGKDGSRKEVRLPMLHDPPKMGMPVVRGGQTVPGQAPLCFDPGSPASDKTEGKKKGRPKAENQALRDIPLSLMNDWKDEFKAHSRVKCPNSGCWLEFPSIYGLKYHYQRCQGGAISDRLAFPCPFCEAAFTSKTQLEKHRIWNHMDRPLPASKPGPISRPVTISRPVGVSKPIGVSKPVTIGKPVGVSKPIGISKPVSVGRPMPVTKAIPVTRPVPVTKPVTVSRPMPVTKAMPVTKPITVTKSVPVTKPVPVTKPITVTKLVTVTKPVPVTKPVTVSRPIVVSKPVTVSRPIAISRHTPPCKMVLLTRSENKAPRATGRNSGKKRAADSLDTCPIPPKQARPENGEYGPSSMGQSSAFQLSADTSSGSLSPGSRPSGGMEALKAAGPASPPEEDPERTKHRRKQKTPKKFTGEQPSISGTFGLKGLVKAEDKARVHRSKKQEGPGPEDARKKVPAAPITVSKEAPAPVAHPAPGGPEEQWQRAIHERGEAVCPTCNVVTRKTLVGLKKHMEVCQKLQDALKCQHCRKQFKSKAGLNYHTMAEHSAKPSDAEASEGGEQEERERLRKVLKQMGRLRCPQEGCGAAFSSLMGYQYHQRRCGKPPCEVDSPSFPCTHCGKTYRSKAGHDYHVRSEHTAPPPEEPTDKSPEAEDPLGVERTPSGRVRRTSAQVAVFHLQEIAEDELARDWTKRRMKDDLVPETARLNYTRPGLPTLNPQLLEAWKNEVKEKGHVNCPNDCCEAIYSSVSGLKAHLASCSKGAHLAGKYRCLLCPKEFSSESGVKYHILKTHAENWFRTSADPPPKHRSQDSLVPKKEKKKNLAGGKKRGRKPKERTPEEPVAKLPPRRDDWPPGCRDKGARGSTGRKVGVSKAPEK

binding (HMGA2-V5-miniTurbo): binds
binding (HMGA2-Flag-BioID2 [2]): binds
B7: HMGB2 (protein, UniProt P26583 1-209)
chain: MGKGDPNKPRGKMSSYAFFVQTCREEHKKKHPDSSVNFAEFSKKCSERWKTMSAKEKSKFEDMAKSDKARYDREMKNYVPPKGDKKGKKKDPNAPKRPPSAFFLFCSEHRPKIKSEHPGLSIGDTAKKLGEMWSEQSAKDKQPYEQKAAKLKEKYEKDIAAYRAKGKSEAGKKGPGRPTGSKKKNEPEDEEEEEEEEDEDEEEEDEDEE

Results are given in words; binding and its absence hold for the method and conditions named. In cells and extracts the contact can be indirect. These calls come from enrichment with a bait or labelling near it, and not all partners need be listed. For some of these results: A no says only that the protein was not detected with the bait. One block for each molecule: values may come before it.
